## Primary screen of a compound library

By UniProt entry, the sequences of proteins in these tests, tags left out.
UniProt P9WFT3, whole entry: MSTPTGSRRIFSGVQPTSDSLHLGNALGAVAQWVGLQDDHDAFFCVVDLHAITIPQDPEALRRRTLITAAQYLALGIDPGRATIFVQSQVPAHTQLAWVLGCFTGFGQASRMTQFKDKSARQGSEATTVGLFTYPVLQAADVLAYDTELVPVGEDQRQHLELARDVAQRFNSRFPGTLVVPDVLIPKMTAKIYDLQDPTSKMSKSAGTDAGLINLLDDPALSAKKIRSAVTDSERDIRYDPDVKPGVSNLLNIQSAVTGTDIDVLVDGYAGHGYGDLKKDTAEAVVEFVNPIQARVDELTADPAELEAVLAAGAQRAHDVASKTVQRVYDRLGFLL

Measurements from “University of Dundee, Small-Polar-MMV Screening Library” (2021), ChEMBL document CHEMBL3988442.

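Enzyme assay of tryptophanyl-tRNA synthetase; the read-out is not stated. Target: Tryptophan-tRNA ligase, Mycobacterium tuberculosis (UniProt P9WFT3). Tested at 10 µM. Direction is not recorded; retested compounds ran higher, which suggests that high means inhibition. About 65,000 compounds were tested under these conditions; 0.098% (about 64) showed 50% or more at least once.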

Results are given as percent effect. How 0% and 100% were set is not recorded. Most values in the screen are low, and negative values occur. This is an unselected part of the compounds tested.

compound | Percent Effect
CCc1nc(NS(=O)(=O)c2cc(C)c(F)cc2Cl)no1 | -3.284
O=S(=O)(CC1CC1)c1ncc(CN2CCSCC2)n1CC1CCCO1 (configuration not stated) | 2.124
CCc1nc(CNC2CCCc3c2cnn3CC)cs1 (configuration not stated) | -0.8256
CCC(O)Cn1nc(CCSC)nc1-c1ccc2c(c1)OCCO2 (configuration not stated) | 16.54
COc1cc(/C=C/c2ncc(C(=O)O)s2)cc(OC)c1 | -8.197
CC(C)C(O)CNC(=O)Nc1cnn(Cc2ccccc2)c1 (configuration not stated) | -0.9497
Cc1noc(C(C)N2CCC(c3nc4ccccc4[nH]3)CC2)n1 (configuration not stated) | -0.9031
CN1CCN(CCCNC(=O)c2cc(Cl)c3c(c2)OCO3)CC1 | -0.9479
CCC1CCC(N(Cc2cc(=O)n(C)c(=O)n2C)C2CC2)CC1 (configuration not stated) | 2.579
COCC1CN(Cc2cccc(C#N)c2)Cc2nccn2C1 (configuration not stated) | 3.357
Cc1ccc2c(c1)N(C(=O)c1c[nH]c(C)cc1=O)CC(C)O2 (configuration not stated) | -2.452
CN1CCc2c1nc1c(c2N)CCC1 | 3.6
Cn1cc(C(=O)N2CCN(Cc3ccsc3)CC2)cn1 | 16.64
CN(C)C(=O)CO[C@@H]1CN(Cc2ccccc2)[C@@H]2CCCO[C@@H]21 | 8.916
Cc1nc(CNC(=O)NC2CCCN(c3ncccn3)C2)cs1 (configuration not stated) | 2.297
COc1ncccc1C(=O)N1CC[C@]2(C[C@@H](Oc3cccnc3)CO2)C1 | 1.256
N#Cc1cccc(OCCN2CCn3c(nnc3C3CC3)C2)c1 | -4.112
CS(=O)(=O)N1CCC2(CN(C(=O)c3cccnc3)C2)C1 | -0.9046
COc1cc(F)c(C(C)NC(=O)c2cccnc2C)cc1OC (configuration not stated) | -8.118
O=C(c1ccc(O)cc1)N1CCN(C(=O)c2ccc3c(c2)COC3)CC1 | 1.338
COCCN1CCN(CC(=O)N(C)Cc2ccsc2)CC1C (configuration not stated) | 1.455
Cc1nn(C)c(C)c1NC(=O)CNC(c1ccc(F)cc1)C1CCC1 (configuration not stated) | -4.421
CC(=O)N[C@@H]1CN(S(=O)(=O)Cc2ccccc2)C[C@H]1C(C)C | -3.271
Cc1nc(-c2cccc(C(=O)N(C)C)c2)cs1 | -3.964
COCCNC(=O)c1nc(-c2cn(C)cn2)n2ccccc12 | -5.151
O=C(CCn1cncn1)N1CCC2(CC1)[C@H](O)C[C@@H]2OCCO | -3.211
O=C(CN1CCc2c(ncn2C2CC2)C1)NC1CCN(C2CC2)CC1 | 21.52
Cc1ccsc1CN(CCN(C)C)C(=O)c1cc2ccccc2[nH]1 | -7.562
O=C(c1ccc2c(c1)OCO2)N1CCCC(n2cccn2)C1 (configuration not stated) | -2.895
COc1ccc(C2CCCN2C(=O)c2csc(NC(C)=O)n2)cc1 (configuration not stated) | 1.199
COc1ccc(Cl)cc1C(=O)N1CCCC(c2cc(C)[nH]n2)C1 (configuration not stated) | -6.921
CN(Cc1c(F)cccc1Cl)C(=O)c1cnn(CCN2CCOCC2)c1 | -0.2075
CCCN1CCC(NC(=O)c2csc(C)c2-c2ccccc2)CC1 | -1.444
Cc1cnn(CCC(=O)N2CCCC(c3cc(C(N)=O)[nH]n3)C2)c1 (configuration not stated) | -2.269
C[C@H](c1ccc(F)cc1)n1c(C2CCN(C)CC2)n[nH]c1=O | -0.9226
N#CCc1ccc(OCC(=O)NS(=O)(=O)c2ccc(Cl)s2)cc1 | 4.686
CCOC(C)c1nc(Cn2cc(C)cn2)cs1 (configuration not stated) | -3.981
CN(C)CCO[C@H]1C[C@@H](O)C12CCN(c1cnccn1)CC2 | 4.963
CCc1noc(C2CCCCN2C(=O)c2cc(C)oc2C)n1 (configuration not stated) | 3.109
CC(C)n1nccc1C(=O)N1CCC(c2nnsc2S(C)(=O)=O)CC1 | -7.049
COCCN1C[C@H]2CC[C@@H]1CN(Cc1nc3ccccc3n1C)C2 | -0.3749
COCc1ccccc1CNc1cc(N2CCCC2CO)ncn1 (configuration not stated) | 2.318
CC(C)c1cc(C(=O)N2C[C@H]3CC[C@@H]2CN(Cc2ccccn2)C3)no1 | -3.306
CCC(C#N)NC(=O)c1ccc(Oc2cccnc2)cc1 (configuration not stated) | 2.21
O=C(Nc1ccc(F)cc1)C1CNCCN1C(=O)CCO (configuration not stated) | -5.463
Fc1cccc(O[C@@H]2C[C@H]3CN(Cc4ccncc4)CCN3C2)c1 | 0.1818
N#CCCN(c1ccccc1)S(=O)(=O)CC1CCCCO1 (configuration not stated) | -1.845
O=C([C@H](O)c1ccccc1)N1CCN(c2cccc(Cl)c2)C(=O)C1 | 4.617
N#Cc1ncn(CCS(=O)(=O)c2ccccc2)n1 | 5.374
CN(C)c1ccc(C(=O)N2CCN(C(=O)N3CCCCC3)CC2)nn1 | 1.039
CNc1snc(C)c1C(=O)N1CCCC(n2cc(C)cn2)C1 (configuration not stated) | -3.397
CC(=O)NCC1CN(c2ccc3c(Cl)ccnc3c2F)CCO1 (configuration not stated) | 1.858
O=C(c1nc(=O)[nH]c2ccccc12)N1CCCC2(CCNC2)C1 (configuration not stated) | 2.217
O=C(c1cnccn1)N1CCCC2(CCN(c3ncccn3)C2)C1 (configuration not stated) | 1.424
COc1cccc(N2CCN(C(C(=O)O)c3ccc(OC)nc3)CC2)c1 (configuration not stated) | 1.156
C[C@@H]1CN(Cc2cc3ccccc3n2C)CC[C@]1(C)O | 5.203
Cc1cccc(CN2CCC3(CCCN(C(=O)CN(C)C)C3)C2=O)n1 (configuration not stated) | -4.542
COCCN1C2(CCN(C(=O)c3cccs3)C2)c2ccccc2S1(=O)=O (configuration not stated) | 1.59
Cc1nc(CN2C(=O)CC[C@H]3[C@@H]2CCN3C(=O)c2ccsc2)cs1 | -0.2615
CCN1CCN(c2ccc(F)cc2C(C)NCc2ccnn2C)CC1 (configuration not stated) | -0.4397
CC(C)c1cc(NC(=O)CN2CCc3ccccc3C2)on1 | -1.679
CC(C)CCN1CCN(C(=O)c2cnccn2)CC1 | 22.16
Cc1cccc(-n2ncc3c(=O)n(CCN4CCCCC4)cnc32)c1C | 0.7424
Cc1occc1C(=O)N1CCCC(C2=Nc3ccccc3S(=O)(=O)N2)C1 (configuration not stated) | -4.112
O=C(NCC1CCOC1)c1csc(-c2cccc(Cl)c2)n1 (configuration not stated) | -4.716
CCOC(=O)N1CCN(C(=O)c2cc(-c3ccc(Cl)cc3Cl)on2)CC1 | 2.151
CS(=O)(=O)Nc1ccn(Cc2cccc(Cl)c2)n1 | 1.554
COc1ccc(CN2CCCC3(CC2)CNC(=O)O3)cc1OC (configuration not stated) | 6.673
Cc1ccc(NC(=O)NCC2(N3CCOCC3)CCSC2)c(C)c1 (configuration not stated) | 0.2646
CN(CCCOc1ccc(F)cc1)Cc1nc2c(cnn2C)c(=O)[nH]1 | 0.2924

Repeated from the top, 6 entries:

| compound | Percent Effect |
|---|---|
| `CCc1nc(NS(=O)(=O)c2cc(C)c(F)cc2Cl)no1` | -3.284 |
| `O=S(=O)(CC1CC1)c1ncc(CN2CCSCC2)n1CC1CCCO1` (configuration not stated) | 2.124 |
| `CCc1nc(CNC2CCCc3c2cnn3CC)cs1` (configuration not stated) | -0.8256 |
| `CCC(O)Cn1nc(CCSC)nc1-c1ccc2c(c1)OCCO2` (configuration not stated) | 16.54 |
| `COc1cc(/C=C/c2ncc(C(=O)O)s2)cc(OC)c1` | -8.197 |
| `CC(C)C(O)CNC(=O)Nc1cnn(Cc2ccccc2)c1` (configuration not stated) | -0.9497 |